# Where a name gives a salt, the structure may show the parent alone. Some of the results follow. Most entries show no effect beyond the scatter of the controls.
# Columns and labels:
# Conditions in all cases: 5 µM; treatment: days 7-14 after plating, readout day 21
# [1] = tested on: hPSC-derived cortical neurons (WA09); assay: nucleus area z-score vs screen plate; higher = larger nuclei (more mature)
# [2] = tested on: hPSC-derived cortical neurons (WA09); assay: total neurite length per nucleus (MAP2) z-score; higher = more neurite growth
# [3] = tested on: hPSC-derived cortical neurons (WA09); assay: nucleus roundness z-score vs screen plate; higher = rounder nuclei (more mature)
# [4] = tested on: hPSC-derived cortical neurons (WA09); assay: KCl-induced FOS+/EGR-1+ double-positive nuclei fraction z-score (KCl minus unstimulated); higher = stronger activity-induced IEG response
SMILES,nucleus area z-score [1],total neurite length per nucleus (z-score) [2],nucleus roundness z-score [3],KCl-induced FOS+/EGR-1+ double-positive nuclei fraction z-score [4]
OC(CCN1CCCCC1)(c1ccccc1)C1CCCCC1 (stereo unspecified) [Trihexyphenidyl hydrochloride],0.336,1.05,0.718,-0.417
CC(C)Nc1cc(-c2c[nH]c(C(=O)N[C@H](CO)c3cccc(Cl)c3)c2)c(Cl)cn1,-0.216,-0.775,-0.411,-1.62
O=C1C(CC[S+]([O-])c2ccccc2)C(=O)N(c2ccccc2)N1c1ccccc1 (racemic) [(+/-)-Sulfinpyrazone],0.815,0.519,0.168,0.0282
C[C@H](O)C(=O)Nc1c(I)c(C(=O)NC(CO)CO)c(I)c(C(=O)NC(CO)CO)c1I [Iopamidol],0.0741,-0.118,-1.83,1.78
COc1cc(Nc2ncc(F)c(Nc3ccc4c(n3)NC(=O)C(C)(C)O4)n2)cc(OC)c1OC,-0.0298,0.607,0.262,0.172
Cc1cc(Nc2nc(N[C@@H](C)c3ccc(F)cc3)c(C#N)cc2F)n[nH]1,-2.87,0.24,-1.62,-0.233
C[C@H](CCC(=O)O)[C@H]1CC[C@H]2[C@@H]3C[C@H](O)[C@@H]4C[C@H](O)CC[C@]4(C)[C@H]3CC[C@]12C [Hyodeoxycholic acid (HDCA)],0.48,-0.702,-0.035,0.0716
CC(C)NCC(O)c1cc(O)cc(O)c1 (stereo unspecified) [Metaproterenol Sulfate],0.705,0.528,0.52,2.12
COc1cc(Nc2c(C#N)cnc3cc(OCCCN4CCN(C)CC4)c(OC)cc23)c(Cl)cc1Cl [Bosutinib (SKI-606)],2.41,1.25,-0.871,-1.21

# Reference: the supplement of paper PMC11348887
